# From PMC12579238
# T1: CLN7 (human (endogenous in SH-SY5Y)) (UniProt Q8NHS3)
# T1 sequence: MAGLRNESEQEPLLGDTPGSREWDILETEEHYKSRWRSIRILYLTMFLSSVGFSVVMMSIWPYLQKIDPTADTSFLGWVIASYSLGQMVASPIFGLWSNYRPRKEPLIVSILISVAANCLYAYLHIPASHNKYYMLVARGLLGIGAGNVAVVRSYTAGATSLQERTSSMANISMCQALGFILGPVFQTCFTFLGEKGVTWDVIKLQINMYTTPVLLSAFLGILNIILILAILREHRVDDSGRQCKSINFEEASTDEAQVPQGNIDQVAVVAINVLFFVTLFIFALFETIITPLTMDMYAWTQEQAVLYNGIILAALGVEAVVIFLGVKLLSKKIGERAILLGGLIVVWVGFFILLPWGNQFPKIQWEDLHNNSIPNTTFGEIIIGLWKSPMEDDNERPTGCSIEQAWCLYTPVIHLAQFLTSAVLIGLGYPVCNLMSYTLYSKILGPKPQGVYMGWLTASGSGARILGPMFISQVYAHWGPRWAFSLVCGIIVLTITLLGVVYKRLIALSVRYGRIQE
# Biological target: T1, CLN7 (human (endogenous in SH-SY5Y))
# Assay: affinity purification with mass spectrometry; endogenous CLN7 immunoprecipitated from 2.5 mg SH-SY5Y lysate with a polyclonal anti-CLN7 antibody raised against L9 (351-421aa, Proteintech) on G-sepharose beads; IgG as non-specific binding control; 4 independent replicates; cells under steady state culture conditions
row,Binder,binding
1,"FAM120C (protein, UniProt Q9NX05 1-1096) MGVQGFQEFLEKRCPGAVVPVDLLKLARTVSRQQQQQHLHRQLPPTAALAPGAPRAARGSVPLQPPLPPAALGAYSGGAGPTRHHHPAHHFHHHGQAQPGLHPPLPPPPPPQLPGARVLVDAGSALPRLYGGYQTDWVCGGQWNAMLGYLSALCQACAYPGGDGLELVVMFPGGLGKDRLAEWGRRCQAERQTAQLIVGHVGNKGTPPPRAWFLPPACLSHCVRLALIRFRVKVFQSLEDHHLEVVAFFRENGFHGLLAHDSEYALYNIPSYYSSHALKLSWNGKNLTTNQFLMQEVAKQLGLKRMNFPIFAALLGNHILPDEDLAAFHWSLLGPEHPLASLKVRAHQLVLPPCDVVIKAVSEYVSSIKDPSNLDVVGKDVFKQSQSRTEDKIERFKKAVEYYSVTTKLSSLPVGPSFLGFRNNRLGNPPLPRNQVGTISAGKPMFSHQVPQKVKYPPPFPVGPNSSLLFSSHALGESHAFSEDPMLQNSPFANWAVSYDSSASQFPNYLPSKASPPLGPDSSHSSSSDGDEPNGASSDHITEAFHHQPEWGNPNRDRGSWAQPVDTGVSEASLGDGEPHIPSLLSMSTRNHMDITIPPLPPVAPEVLRVAEHRHRRGLMYPYIYHVLTKGEIKIPVCIEDECNMELPPAALLFRSARQYVYGVLFSLAETQRKMERLAMRRRLPVEVPSVILKEWSAYKGKSPQTPELVSALTFREWTCPNLKKLWLGKAVEDKNRRMRAFLACMKSDTPSMLNPANVPTHLLLMCCVLRYMVQWPGGRILHRHELDTFLAQAVSTQLYEPDRLQELKIEKLDARGIQLAALFMSGVDTALFANDACGQPVPWEHCCPWIYFDGKLFQSKLIKAGRERVSLVELCDGQADLATKVEKMRQSILEGVNMNHPPPSALLPSPTFVPPMVPSLYPVSLYSRAMGSMPLPPQGRSRGFAGLHPIPPQGGKLEIAGMVVGQWAGSRSSRGRGSFGMQVVSVGGPGKGHGKEQTGRGSKGHKKGNKQGSSDGVSKSLELHQGRSRSQVNGNSGALIKEEKSDHRLPAPSQCALSRDSNECNNGNRYLPMNNREKNHLQEQKLETVAQRKED",binds
2,"G3BP2 (protein, UniProt Q9UN86 1-482) MVMEKPSPLLVGREFVRQYYTLLNKAPEYLHRFYGRNSSYVHGGVDASGKPQEAVYGQNDIHHKVLSLNFSECHTKIRHVDAHATLSDGVVVQVMGLLSNSGQPERKFMQTFVLAPEGSVPNKFYVHNDMFRYEDEVFGDSEPELDEESEDEVEEEQEERQPSPEPVQENANSGYYEAHPVTNGIEEPLEESSHEPEPEPESETKTEELKPQVEEKNLEELEEKSTTPPPAEPVSLPQEPPKAFSWASVTSKNLPPSGTVSSSGIPPHVKAPVSQPRVEAKPEVQSQPPRVREQRPRERPGFPPRGPRPGRGDMEQNDSDNRRIIRYPDSHQLFVGNLPHDIDENELKEFFMSFGNVVELRINTKGVGGKLPNFGFVVFDDSEPVQRILIAKPIMFRGEVRLNVEEKKTRAARERETRGGGDDRRDIRRNDRGPGGPRGIVGGGMMRDRDGRGPPPRGGMAQKLGSGRGTGQMEGRFTGQRR",binds
3,"GTPBP1 (protein, UniProt O00178 1-669) MATERSRSAMDSPVPASMFAPEPSSPGAARAAAAAARLHGGFDSDCSEDGEALNGEPELDLTSKLVLVSPTSEQYDSLLRQMWERMDEGCGETIYVIGQGSDGTEYGLSEADMEASYATVKSMAEQIEADVILLRERQEAGGRVRDYLVRKRVGDNDFLEVRVAVVGNVDAGKSTLLGVLTHGELDNGRGFARQKLFRHKHEIESGRTSSVGNDILGFDSEGNVVNKPDSHGGSLEWTKICEKSTKVITFIDLAGHEKYLKTTVFGMTGHLPDFCMLMVGSNAGIVGMTKEHLGLALALNVPVFVVVTKIDMCPANILQETLKLLQRLLKSPGCRKIPVLVQSKDDVIVTASNFSSERMCPIFQISNVTGENLDLLKMFLNLLSPRTSYREEEPAEFQIDDTYSVPGVGTVVSGTTLRGLIKLNDTLLLGPDPLGNFLSIAVKSIHRKRMPVKEVRGGQTASFALKKIKRSSIRKGMVMVSPRLNPQASWEFEAEILVLHHPTTISPRYQAMVHCGSIRQTATILSMDKDCLRTGDKATVHFRFIKTPEYLHIDQRLVFREGRTKAVGTITKLLQTTNNSPMNSKPQQIKMQSTKKGPLTKRDEGGPSGGPAVGAPPPGDEASSVGAGQPAASSNLQPQPKPSSGGRRRGGQRHKVKSQGACVTPASGC",binds
4,"HAUS6 (protein, UniProt Q7Z4H7 1-955) MSSASVTAFEKEHLWMYLQALGFEPGPATIACGKIVSHTHLGVNMFDKLNRDAFHIISYFLFQVLDQSLTKEVFKFCWPPFDQKSDTEFRKHCCEWIKRISGECGSSFPQVVGSLFLSPGGPKFIHLMYHFARFVAMKYIKSNSKNSSHHFVETFNIKPQDLHKCIARCHFARSRFLQILQRQDCVTQKYQENAQLSVKQVRNLRSECIGLENQIKKMEPYDDHSNMEEKIQKVRSLWASVNETLMFLEKEREVVSSVLSLVNQYALDGTNVAINIPRLLLDKIEKQMFQLHIGNVYEAGKLNLLTVIQLLNEVLKVMKYERCQADQARLTVDLHYLEKETKFQKERLSDLKHMRYRIKDDLTTIRHSVVEKQGEWHKKWKEFLGLSPFSLIKGWTPSVDLLPPMSPLSFDPASEEVYAKSILCQYPASLPDAHKQHNQENGCRGDSDTLGALHDLANSPASFLSQSVSSSDRNSVTVLEKDTKMGTPKEKNEAISKKIPEFEVENSPLSDVAKNTESSAFGGSLPAKKSDPFQKEQDHLVEEVARAVLSDSPQLSEGKEIKLEELIDSLGSNPFLTRNQIPRTPENLITEIRSSWRKAIEMEENRTKEPIQMDAEHREVLPESLPVLHNQREFSMADFLLETTVSDFGQSHLTEEKVISDCECVPQKHVLTSHIDEPPTQNQSDLLNKKVICKQDLECLAFTKLSETSRMETFSPAVGNRIDVMGGSEEEFMKILDHLEVSCNKPSTNKTMLWNSFQISSGISSKSFKDNDFGILHETLPEEVGHLSFNSSSSSEANFKLEPNSPMHGGTLLEDVVGGRQTTPESDFNLQALRSRYEALKKSLSKKREESYLSNSQTPERHKPELSPTPQNVQTDDTLNFLDTCDLHTEHIKPSLRTSIGERKRSLSPLIKFSPVEQRLRTTIACSLGELPNLKEEDILNKSLDAKEPPSDLTR",binds

# Continued, values first:
row,binding,Binder
1,binds,"GIT2 (protein, UniProt Q14161 1-759) MSKRLRSSEVCADCSGPDPSWASVNRGTFLCDECCSVHRSLGRHISQVRHLKHTPWPPTLLQMVETLYNNGANSIWEHSLLDPASIMSGRRKANPQDKVHPNKAEFIRAKYQMLAFVHRLPCRDDDSVTAKDLSKQLHSSVRTGNLETCLRLLSLGAQANFFHPEKGNTPLHVASKAGQILQAELLAVYGADPGTQDSSGKTPVDYARQGGHHELAERLVEIQYELTDRLAFYLCGRKPDHKNGQHFIIPQMADSSLDLSELAKAAKKKLQSLSNHLFEELAMDVYDEVDRRETDAVWLATQNHSALVTETTVVPFLPVNPEYSSTRNQGRQKLARFNAHEFATLVIDILSDAKRRQQGSSLSGSKDNVELILKTINNQHSVESQDNDQPDYDSVASDEDTDLETTASKTNRQKSLDSDLSDGPVTVQEFMEVKNALVASEAKIQQLMKVNNNLSDELRIMQKKLQTLQSENSNLRKQATTNVYQVQTGSEYTDTSNHSSLKRRPSARGSRPMSMYETGSGQKPYLPMGEASRPEESRMRLQPFPAHIGRSALVTSSSSLPSFPSTLSWSRDESARRASRLEKQNSTPESDYDNTPNDMEPDGMGSSRKGRQRSMVWPGDGLVPDTAEPHVAPSPTLPSTEDVIRKTEQITKNIQELLRAAQENKHDSYIPCSERIHVAVTEMAALFPKKPKSDMVRTSLRLLTSSAYRLQSECKKTLPGDPGSPTDVQLVTQQVIQCAYDIAKAAKQLVTITTKENNN"
2,binds,"GNL3 (protein, UniProt Q9BVP2 1-549) MKRPKLKKASKRMTCHKRYKIQKKVREHHRKLRKEAKKRGHKKPRKDPGVPNSAPFKEALLREAELRKQRLEELKQQQKLDRQKELEKKRKLETNPDIKPSNVEPMEKEFGLCKTENKAKSGKQNSKKLYCQELKKVIEASDVVLEVLDARDPLGCRCPQVEEAIVQSGQKKLVLILNKSDLVPKENLESWLNYLKKELPTVVFRASTKPKDKGKITKRVKAKKNAAPFRSEVCFGKEGLWKLLGGFQETCSKAIRVGVIGFPNVGKSSIINSLKQEQMCNVGVSMGLTRSMQVVPLDKQITIIDSPSFIVSPLNSSSALALRSPASIEVVKPMEAASAILSQADARQVVLKYTVPGYRNSLEFFTVLAQRRGMHQKGGIPNVEGAAKLLWSEWTGASLAYYCHPPTSWTPPPYFNESIVVDMKSGFNLEELEKNNAQSIRAIKGPHLANSILFQSSGLTNGIIEEKDIHEELPKRKERKQEEREDDKDSDQETVDEEVDENSSGMFAAEETGEALSEETTAGEQSTRSFILDKIIEEDDAYDFSTDYV"
3,binds,"HERC4 (protein, UniProt Q5GLZ8 1-1057) MLCWGNASFGQLGLGGIDEEIVLEPRKSDFFINKRVRDVGCGLRHTVFVLDDGTVYTCGCNDLGQLGHEKSRKKPEQVVALDAQNIVAVSCGEAHTLALNDKGQVYAWGLDSDGQLGLVGSEECIRVPRNIKSLSDIQIVQVACGYYHSLALSKASEVFCWGQNKYGQLGLGTDCKKQTSPQLLKSLLGIPFMQVAAGGAHSFVLTLSGAIFGWGRNKFGQLGLNDENDRYVPNLLKSLRSQKIVYICCGEDHTAALTKEGGVFTFGAGGYGQLGHNSTSHEINPRKVFELMGSIVTEIACGRQHTSAFVPSSGRIYSFGLGGNGQLGTGSTSNRKSPFTVKGNWYPYNGQCLPDIDSEEYFCVKRIFSGGDQSFSHYSSPQNCGPPDDFRCPNPTKQIWTVNEALIQKWLSYPSGRFPVEIANEIDGTFSSSGCLNGSFLAVSNDDHYRTGTRFSGVDMNAARLLFHKLIQPDHPQISQQVAASLEKNLIPKLTSSLPDVEALRFYLTLPECPLMSDSNNFTTIAIPFGTALVNLEKAPLKVLENWWSVLEPPLFLKIVELFKEVVVHLLKLYKIGIPPSERRIFNSFLHTALKVLEILHRVNEKMGQIIQYDKFYIHEVQELIDIRNDYINWVQQQAYGMDVNHGLTELADIPVTICTYPFVFDAQAKTTLLQTDAVLQMQMAIDQAHRQNVSSLFLPVIESVNPCLILVVRRENIVGDAMEVLRKTKNIDYKKPLKVIFVGEDAVDAGGVRKEFFLLIMRELLDPKYGMFRYYEDSRLIWFSDKTFEDSDLFHLIGVICGLAIYNCTIVDLHFPLALYKKLLKKKPSLDDLKELMPDVGRSMQQLLDYPEDDIEETFCLNFTITVENFGATEVKELVLNGADTAVNKQNRQEFVDAYVDYIFNKSVASLFDAFHAGFHKVCGGKVLLLFQPNELQAMVIGNTNYDWKELEKNTEYKGEYWAEHPTIKIFWEVFHELPLEKKKQFLLFLTGSDRIPILGMKSLKLVIQSTGGGEEYLPVSHTCFNLLDLPKYTEKETLRSKLIQAIDHNEGFSLI"

# No constants are given. Whether binding was seen depends on the method and setting. Binding seen in cells or lysates may run through a third protein. A yes stands for co-enrichment or nearness to the bait. Other partners may have been found.
